Residue numbers refer to the chain shown, from its start. The exact form of at least one protein or probe is not confirmed. Where a protein sequence is shown, tags need not be part of it.
What was measured:
Assay in all cases: activity assay
[1] = system: T1, Kofu clone 5/7-C4 E377K,A633T (Artificial (KOD/Pfu chimera)); settings: M13 primer extension, 2.5 mM MgCl2, 50 C; heparin elution 41.9 mS/cm; purified recombinant protein
T1 sequence (limits assumed): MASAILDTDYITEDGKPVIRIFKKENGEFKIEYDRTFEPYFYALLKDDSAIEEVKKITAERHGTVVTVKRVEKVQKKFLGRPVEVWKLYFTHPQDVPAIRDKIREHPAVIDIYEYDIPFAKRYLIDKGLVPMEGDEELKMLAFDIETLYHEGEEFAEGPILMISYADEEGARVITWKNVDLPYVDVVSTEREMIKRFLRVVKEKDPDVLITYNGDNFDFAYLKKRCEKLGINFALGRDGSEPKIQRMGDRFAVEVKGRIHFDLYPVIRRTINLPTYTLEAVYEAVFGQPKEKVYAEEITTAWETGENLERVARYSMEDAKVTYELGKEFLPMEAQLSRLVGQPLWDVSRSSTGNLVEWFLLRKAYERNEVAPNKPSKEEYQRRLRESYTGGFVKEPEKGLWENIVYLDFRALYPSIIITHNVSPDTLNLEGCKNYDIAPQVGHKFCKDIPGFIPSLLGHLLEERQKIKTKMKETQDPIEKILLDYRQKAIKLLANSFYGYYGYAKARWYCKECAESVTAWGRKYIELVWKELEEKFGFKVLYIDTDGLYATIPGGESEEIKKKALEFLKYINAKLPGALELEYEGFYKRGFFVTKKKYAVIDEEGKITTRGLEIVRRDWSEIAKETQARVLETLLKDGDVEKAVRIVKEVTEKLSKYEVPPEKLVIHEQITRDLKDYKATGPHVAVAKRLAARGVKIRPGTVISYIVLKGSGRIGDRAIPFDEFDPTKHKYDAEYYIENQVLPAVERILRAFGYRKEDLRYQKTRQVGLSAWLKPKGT

[2] = system: T2, Kofu clone 6/7-D5 F591L,L400H,G458V,I706V (Artificial (KOD/Pfu chimera)); settings: M13 primer extension, 2.5 mM MgCl2, 50 C; heparin elution 40.7 mS/cm; purified recombinant protein
T2 sequence (limits assumed): T1 sequence (limits assumed) with K377E, L400H, G458V, F591L, T633A, I706V

[3] = system: T3, Kofu clone 10/7-D4 F591L,K447E,K563T,K606E,E621G (Artificial (KOD/Pfu chimera)); settings: M13 primer extension, 2.5 mM MgCl2, 50 C; heparin elution 39.3 mS/cm; purified recombinant protein
T3 sequence (limits assumed): T1 sequence (limits assumed) with K377E, K447E, K563T, F591L, K606E, E621G, T633A

AACGCCAGGGTTTTCCCAGTCACGACGTTGTAAAACGACG
activity on this sequence [1]: 1 fold vs Kofu
activity on this sequence [2]: 7 fold vs Kofu
activity on this sequence [3]: 7 fold vs Kofu
